# Measurements: the supplement of paper PMC10338343
# ± gives the standard deviation. The list shows a part of the results, in another mix than the full data. Many of these values have a large error.
# System: EfPiwi piRISC loaded with piRNA #1 (26 nt)
# Experiment: pre-steady-state target cleavage rate (min^-1); guide: piRNA #1 5'p-UGAGGUAGUAGGUUGUAUAGUAUCCA; MIWI and MILI are mouse PIWI proteins and EfPiwi is from a freshwater sponge; tags in brackets are library labels; higher = faster piRNA-guided slicing of the target
# Conditions: auxiliary factor: 500 nM Ephydatia muelleri Gtsf1
# Outline: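 A transcribed, DNA-blocked target RNA library […] was incubated at 33 °C for 0–8 or 0–960 min with 1 nM active affinity-purified piRISC carrying one synthetic guide, in HEPES–potassium acetate buffer with or without 500 nM GTSF1 partner protein. Uncleaved targets were then sequenced and normalised to depth and to weakly complementary targets. Data from three trials were pooled, with k3 capped at 0.0001 min^-1, and a burst-and-steady-state fit yielded the pre-steady-state cleavage rate.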
row,Sequence,pre-steady-state target cleavage rate
1,GGAGACCUUUCUUUACAACCUACUACCUCA,0.00421 ± 0.0044
2,GGAGACCAUACAAUACAACCUAGUACCUCA,0.000855 ± 0.0032
3,GGAGACCUAUGUAUACAACCUACAUGGAGA [g8:g19:cont:t1A],0.000636 ± 0.011
4,GGAGAGGAUACUAUACAACCCACUACCUCA,0.00601 ± 0.0024
5,GGAGACCUAUGAUAUGAGCCUACUACCUCA,0.000174 ± 0.01
6,GGAGACCUAACUUUAGAACCUACUACCUCA,0.000226 ± 0.013
7,GGAGACCUAUGAUAUGUUCCUACUAACUCA,0.000163 ± 0.013
8,GGAGUGGAUACUAUACAAGCCUACUACCUCA,0.0104 ± 0.0053
9,GGAGACCUAUGAUAUGUUCCUACUACCUCA [g2:g12:cont:t1A],0.000846 ± 0.0053
10,GGAGACGAUACUAUACAACCAACUACCUGA,0.00427 ± 0.0022
11,GGAGUGGAUACUAUACAACCUUCUACCACA,0.00272 ± 0.0016
12,GGAGACCUUUCUAUACAACCAACUACCUCA,0.00166 ± 0.0044
13,GGAGACCUUACUAUACAAGCUACUUCCUCA,0.00275 ± 0.003
14,GGAGACCUUACUAUACAACCUAGUACCACA,0.00255 ± 0.0023
15,GGAGAGGAUACUAUACAACCUAGCUACCUCA,0.0038 ± 0.0017
16,GGAGUCGAUACUAUACAACCUACUAGCUCA,0.00304 ± 0.0019

# Rewritten bar-delimited: part of the list above
row | Sequence | pre-steady-state target cleavage rate
6 | GGAGACCUAACUUUAGAACCUACUACCUCA | 0.000226 ± 0.013
7 | GGAGACCUAUGAUAUGUUCCUACUAACUCA | 0.000163 ± 0.013
